Results are given in words; binding and its absence hold for the method and conditions named. Some entries that bind do so weakly or less than the wild type. Sequences can lack the tags named with a protein.
Key:
[1] = biological target: T1, GAL4 activation domain fused to SNF4p (pSE1111, pACT-SNF4) (UniProt P12904); test: yeast two-hybrid, positive control
T1 sequence (looked up): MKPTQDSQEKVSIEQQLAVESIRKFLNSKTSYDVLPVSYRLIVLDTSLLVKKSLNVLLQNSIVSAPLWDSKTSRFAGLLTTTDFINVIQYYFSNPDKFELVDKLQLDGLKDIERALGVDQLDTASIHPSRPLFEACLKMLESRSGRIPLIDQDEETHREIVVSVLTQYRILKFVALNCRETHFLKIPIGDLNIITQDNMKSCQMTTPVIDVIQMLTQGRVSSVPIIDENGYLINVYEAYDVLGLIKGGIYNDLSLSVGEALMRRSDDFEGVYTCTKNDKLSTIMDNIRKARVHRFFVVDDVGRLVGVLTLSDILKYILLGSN

Protein sequences, listed by entry. Tags and fused reporters are not part of them. Lines headed by an entry give the natural chain unless they say otherwise; changes in a name come on top.
UniProt P04386: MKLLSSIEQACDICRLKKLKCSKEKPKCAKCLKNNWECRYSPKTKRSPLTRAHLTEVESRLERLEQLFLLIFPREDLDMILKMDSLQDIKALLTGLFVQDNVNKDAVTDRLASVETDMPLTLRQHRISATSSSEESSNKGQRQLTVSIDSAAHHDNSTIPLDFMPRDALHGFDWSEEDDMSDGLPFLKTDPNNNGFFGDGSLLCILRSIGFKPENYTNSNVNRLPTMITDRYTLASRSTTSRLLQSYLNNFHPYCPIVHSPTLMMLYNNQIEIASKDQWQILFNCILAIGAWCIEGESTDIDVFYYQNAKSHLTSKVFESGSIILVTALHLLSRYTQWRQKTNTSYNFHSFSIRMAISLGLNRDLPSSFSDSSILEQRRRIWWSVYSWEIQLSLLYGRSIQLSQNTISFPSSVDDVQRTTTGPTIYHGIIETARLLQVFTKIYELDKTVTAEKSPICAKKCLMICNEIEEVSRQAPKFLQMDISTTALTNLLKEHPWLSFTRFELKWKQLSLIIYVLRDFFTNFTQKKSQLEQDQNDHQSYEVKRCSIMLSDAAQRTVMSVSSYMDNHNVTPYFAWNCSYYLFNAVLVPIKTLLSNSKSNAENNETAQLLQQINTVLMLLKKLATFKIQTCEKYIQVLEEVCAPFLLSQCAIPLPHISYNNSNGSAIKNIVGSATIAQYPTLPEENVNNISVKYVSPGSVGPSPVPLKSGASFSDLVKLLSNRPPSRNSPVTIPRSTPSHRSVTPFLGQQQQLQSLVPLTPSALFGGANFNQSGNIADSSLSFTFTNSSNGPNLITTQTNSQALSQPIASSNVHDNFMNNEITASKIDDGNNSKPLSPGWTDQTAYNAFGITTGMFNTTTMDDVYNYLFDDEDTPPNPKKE

[2] = biological target: T1, GAL4 activation domain fused to SNF4p (pSE1111, pACT-SNF4); test: LACZ-GAL4 reporter in strain BY3161, control of the three-hybrid test

In the case of “GAL4 binding domain fused to SNF1p (pSE1112, pAS1-SNF1) (from UniProt P04386 1-147; P06782 1-633)”, the binding [1] is reported as “binds” and the binding [2] is reported as “binds”.

— patent US20040106173A1, “Bot1: target for antifungal agents” (The University of Miami, priority 2001, published 2004)
